Measurements: PubChem BioAssay
Inconclusive means that the source gave no clear call. Such entries were picked first, then a sample of the others. For some of these results: A potency beside an inconclusive call is a rough fit, not a confirmed value. Calls of active or inactive are those of the source. Unless noted, cut-off not given; nearly all actives show AC50 up to about 26 µM.

Assays:
[1] = growth inhibition of DIPG glioma cells, dose response, cell-based, SU-DIPG-XVII, MIPE5.0, CellTiter-Glo, qHTS (AID 1347060); conditions: SU-DIPG-XVII viability, CellTiter-Glo ATP luminescence;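 on AC50: cells exposed to compound for 48 hours before viability readout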
[2] = growth inhibition of DIPG glioma cells, dose response, cell-based, SU-DIPG-XIII, MIPE4.0, CellTiter-Glo, qHTS (AID 1347061; cut-off not given, nearly all actives have AC50 up to about 37 µM;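 further: cells exposed to compound for 48 hours before readout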); conditions: SU-DIPG-XIII viability, CellTiter-Glo ATP luminescence
[3] = growth inhibition of DIPG glioma cells, dose response, cell-based, JHH-DIPG-1, MIPE4.0, CellTiter-Glo, qHTS (AID 1347062; cut-off not given, nearly all actives have AC50 up to about 27 µM;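 on AC50: cells exposed to compound for two days before readout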); conditions: JHH-DIPG-1 viability, CellTiter-Glo ATP luminescence
[4] = growth inhibition of DIPG glioma cells, dose response, cell-based, SU-DIPG-IV, MIPE4.0, CellTiter-Glo, qHTS (AID 1347063; cut-off not given, nearly all actives have AC50 up to about 30 µM;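 further: compound exposure lasted 48 hours before the viability readout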); conditions: SU-DIPG-IV viability, CellTiter-Glo ATP luminescence
[5] = growth inhibition of DIPG glioma cells, dose response, cell-based, SU-DIPG-XIII, MIPE5.0, CellTiter-Glo, qHTS (AID 1347064; cut-off not given, nearly all actives have AC50 up to about 23 µM;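 on AC50: cells exposed to compound for 48 hours before the viability read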); conditions: SU-DIPG-XIII viability, CellTiter-Glo ATP luminescence
[6] = SU-DIPG-XXV glioma cell viability, MIPE5.0 library, qHTS (AID 1347068; cut-off not given, nearly all actives have IC50 up to about 30 µM;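 on IC50: cells exposed to compound for 48 hours before viability readout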)
[7] = JHH-DIPG-1 glioma cell viability, MIPE5.0 library, CellTiter-Glo luminescence, qHTS (AID 1347067); conditions: JHH-DIPG-1 glioma viability, CellTiter-Glo ATP luminescence;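 further: cells exposed to compound for 48 hours before readout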
[8] = viability loss in pontine glioma line – cell-based, SU-DIPG-XXV, MIPE5.0, CellTiter-Glo, qHTS, dose response (AID 1347065); conditions: CellTiter-Glo ATP luminescence;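 further: cells exposed to compound for 48 hours before ATP readout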
[9] = SU-DIPG-VI glioma cell viability, MIPE4.0 library, CellTiter-Glo luminescence, qHTS (AID 1347066; cut-off not given, nearly all actives have AC50 up to about 30 µM;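 further: cells exposed to compound for 48 hours before readout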); conditions: CellTiter-Glo ATP luminescence

Nc1nc(=O)n([C@H]2C[C@H](O)[C@@H](CO)O2)cc1F
inactive: outcome [1] | outcome [2] | outcome [4] | outcome [6]
inconclusive: AC50 [3] 0.418 µM [cytotoxic] | AC50 [5] 18.6 µM [cytotoxic]

O=NN(CCCl)C(=O)NC1CCCCC1
inactive: outcome [1] | outcome [2] | outcome [3] | outcome [5]
inconclusive: AC50 [4] 0.00743 µM | AC50 [7] 20.9 µM [cytotoxic]

CCCNC(=O)Nc1ccc(Oc2ncnc3cc(OC)c(OC)cc23)cc1Cl
inactive: outcome [3] | outcome [4]
inconclusive: AC50 [1] 0.0105 µM | AC50 [2] 0.296 µM [cytotoxic] | AC50 [8] 37.2 µM [cytotoxic]

O=C(O)CC/C=C\CC[C@@H]1[C@@H](N2CCCCC2)[C@@H](O)C[C@@H]1OCc1ccc(-c2ccccc2)cc1
inactive: outcome [2] | outcome [3] | outcome [9] | outcome [6]
inconclusive: AC50 [1] 9.34 µM [cytotoxic] | AC50 [4] 5.9 µM [cytotoxic] | AC50 [5] 0.742 µM [cytotoxic]

C[C@@H](NCc1cc2ccccc2[nH]1)c1cccc2ccccc12
inconclusive: AC50 [1] 26.3 µM [cytotoxic] | AC50 [3] 0.00105 µM | AC50 [5] 37.2 µM [cytotoxic] | IC50 [6] 26.3 µM [cytotoxic]
inactive: outcome [2] | outcome [4]
active: AC50 [7] 14.8 µM

CN1CCC(COc2cnc(-c3cccc(Cn4nc(-c5cccc(C#N)c5)ccc4=O)c3)nc2)CC1
inconclusive: AC50 [1] 37.2 µM [cytotoxic] | AC50 [2] 29.6 µM [cytotoxic] | AC50 [3] 9.35 µM [cytotoxic] | AC50 [4] 14.8 µM [cytotoxic] | AC50 [5] 29.5 µM [cytotoxic] | IC50 [6] 33.2 µM [cytotoxic]
